Our source for the binding values is article PMC11373843.

Chains of the proteins cited; added tags and fusions are not shown. Lines headed by an entry give the natural chain unless they say otherwise; changes in a name come on top.
UniProt Q95Y26: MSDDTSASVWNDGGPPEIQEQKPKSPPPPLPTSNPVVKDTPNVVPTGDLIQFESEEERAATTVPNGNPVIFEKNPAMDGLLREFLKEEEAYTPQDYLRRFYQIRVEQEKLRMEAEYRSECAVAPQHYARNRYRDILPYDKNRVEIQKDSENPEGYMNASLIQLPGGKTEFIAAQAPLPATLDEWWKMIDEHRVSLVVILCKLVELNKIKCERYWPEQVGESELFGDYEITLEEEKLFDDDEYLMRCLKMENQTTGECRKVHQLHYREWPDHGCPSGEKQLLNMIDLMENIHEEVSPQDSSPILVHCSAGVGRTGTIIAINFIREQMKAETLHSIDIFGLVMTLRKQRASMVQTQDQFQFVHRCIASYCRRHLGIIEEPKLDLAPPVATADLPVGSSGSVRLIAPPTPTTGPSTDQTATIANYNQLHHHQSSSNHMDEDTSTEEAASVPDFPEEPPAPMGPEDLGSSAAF
UniProt Q21253: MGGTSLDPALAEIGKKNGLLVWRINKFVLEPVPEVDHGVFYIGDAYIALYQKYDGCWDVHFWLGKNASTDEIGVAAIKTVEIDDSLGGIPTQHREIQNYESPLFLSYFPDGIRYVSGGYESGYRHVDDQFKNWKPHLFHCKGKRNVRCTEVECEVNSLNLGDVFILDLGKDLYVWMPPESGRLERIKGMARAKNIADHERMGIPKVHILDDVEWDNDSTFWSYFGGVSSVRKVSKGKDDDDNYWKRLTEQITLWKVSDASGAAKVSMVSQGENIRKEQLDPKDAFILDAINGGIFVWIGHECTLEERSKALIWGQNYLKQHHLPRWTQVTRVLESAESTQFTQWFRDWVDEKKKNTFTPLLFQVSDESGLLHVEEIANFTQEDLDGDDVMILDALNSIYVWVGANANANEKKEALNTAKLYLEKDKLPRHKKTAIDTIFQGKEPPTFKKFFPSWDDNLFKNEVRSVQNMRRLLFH

For experiment [1], the target named is P_(hyp7)::PTPN-22::TurboID (C. elegans) (UniProt Q95Y26). Put plainly: proximity labelling; P_(hyp7)::PTPN-22::TurboID from a multicopy array in mixed-stage worms at 25°C, N2 as control, three technical replicates; RIPA lysate on streptavidin-coated magnetic beads at 4°C for 16 hours, on-bead digestion, DIA LC-MS/MS; enriched ≥2-fold, adjusted p <0.05.
In experiment [2] the target is PTPN-22::TurboID (C. elegans) (UniProt Q95Y26). Put plainly: proximity labelling; endogenously tagged PTPN-22::TurboID in mixed-stage worms at 22°C, N2 as control, four replicates; RIPA lysate on streptavidin-coated magnetic beads 1 hour at room temperature, on-bead digestion, DIA LC-MS/MS; enriched ≥2-fold, adjusted p <0.05.
Experiment [3] concerns the target P_(hyp7)::PTPN-22::TurboID (C. elegans) (UniProt Q95Y26). Put plainly: proximity labelling; P_(hyp7)::PTPN-22::TurboID from a multicopy array in mixed-stage worms at 25°C, N2 as control, three technical replicates; RIPA lysate on streptavidin-coated magnetic beads at 4°C for 16 hours, on-bead digestion, DIA LC-MS/MS; enriched ≥2-fold, adjusted p <0.05. This is another data set of the same source.

Read-outs that look alike come from different tables or passages of the source. No constants are given. Whether binding was seen depends on the method and setting. Binding seen in cells or lysates may run through a third protein. A yes stands for co-enrichment or nearness to the bait. Other partners may have been found.

For the molecule GSNL-1 (from UniProt Q21253 1-475), the binding entry in experiment [1] is “binds”.

B1: IMA-3 (protein, UniProt Q19969 1-514)
chain: MSSNRQAYYKNNAKEQIGKEKRNEEVVSIRKDKREEAISKRRNINTQIEDDSETSTTPPGPFDANLLRLTVAAAQSSDPAEQLTAVQQARKMLSTDRNPPIDDLIGSGILPVLVQCLSSTDPNLQFEAAWALTNIASGTSEQTQAVVNAGAVPLFLQLLSCGNLNVCEQSVWALGNIIGDGPHFRDYCLELGILQPLLQFINPEIPIGFLRNVTWVIVNLCRCKDPAPSPAVVRTILPALSLLIHHQDTNILIDTVWALSYLTDGGNEHIQMVIEAQVVTHLVPLLGHVDVKVQTAALRAVGNIVTGTDEQTQLVLDSGVLRFMPGLLAHYKEKINKEAVWFVSNITAGNQQQVQDVFDAGIMPMIIHLLDRGDFPTQKEAAWAISNVTISGRPNQVEQMVKLGVLRPFCAMLSCTDSQIIQVVLDGINNILKMAGEAAEQVTSEIEECGGLDKIENLQNHENEDIYKLAFEIIDNFFSSDDETGNVEGAQSSAFGGDVPPVPDAPNGGWNFGK
For the molecule B1, the binding entry in experiment [2] is “binds”.

B2: CAP-1 (protein, UniProt P34685 1-282)
chain: MSEISDAEKVRIASDFIKHAPPGEFNEVFNSVRMLLENDDLLKNKCVNAIAQYNVGQFVPVKLDGVAKQTLITPYNDLGNGRFYDEVSKKSFKYDHVRKEAADLQPHPAESGITEQWRQALQTQLDIYIDDHYAKSGTGVVFARNGVFTICIESHQFQPKNFCNGRWRSEWNVPVGDGKSGSQEMKGKILSQVHYYEDGNVQLFSEKEPVLKVNVSADFDKTAKEIIHAISEEETIYQNAVQENYANMSDTTFKALRRQLPVTRAKMDWNKAQTYRIGQEMK
Consider B2, for which the binding entry in experiment [3] and in experiment [2] was “binds” each time.

B3: IMA-2 (protein, UniProt P91276 1-531)
chain: MTLTETSLSHNAEEGKDEGGRLQQYKNLTKHEELRRRRTECSVEIRKQKGADMMMKRRNIVDVDEGGNSESELEEPEKISHQQSSTRLSNDEIRAILSNNPSEDDMVRCFESLRKSLSKTKNPPIDEVIHCGLLQALVQALSVENERVQYEAAWALTNIVSGSTEQTIAAVEAGVTIPLIHLSVHQSAQISEQALWAVANIAGDSSQLRDYVIKCHGVEALMHLMEKVDQLGDSHVRTIAWAFSNMCRHKNPHAPLEVLRVLSKGLVKLVQHTDRQVRQDACWAVSYLTDGPDEQIELARESGVLPHVVAFFKEAENLVAPALRTLGNVATGNDSLTQAVIDLGSLDEILPLMEKTRSSSIVKECCWLVSNIIAGTQKQIQAVLDANLLPVLINVLKSGDHKCQFEASWALSNLAQGGTNRQVVAMLEDNVVPALCQALLQTNTDMLNNTLETLYTLMLTVQNGYPHKVDILHDQVEENGGLDSLERLQESQSEQIYTQAYRIITQFFTDDDAGEKESHENADPQDNKWSF
With B3, the binding entry in experiment [2] is on record as “binds”.

B4: IFB-1 (protein, UniProt Q19289 1-589)
chain: MSSHKESSEYEMQYRSTIQPRTAVRSQSRQSGNYVSGGNGAGSGGRVLKMVTEMGSATVGGISPALSANAAKSFLEATDKEKKTLQGLNDRLGNYIDRVKKLEEQNRKLVADLDELRGKWGKDTSEIKIKYSESLSTARKDIDDAARRKAEVDVKVARHRDDLAEYRSRYEDIQQRRESDREKISQWTNAIADAQSEVEMLRARFKQLTDEEKRVTADNSRIWEELQKARSDLDDETIGRIDFQNQVQTLMEELEFLRRVHEQEVKELQALLAQAPADTREFFKNELALAIRDIKDEYDIIAKQGKQDMESWYKLKVSEVQGSANRANMESTYQRDEVKRMRDNIGDLRGKLGDLENKNSLLEKEVQNLNYQLTDDQRQYEAALNDRDATLRRMREECQTLVAELQALLDTKQMLDAEIAIYRKMLEGEETRVGLTQMVEQAVKTHSLQQQENTDSTRSVRGEVSTKTTFQRSAKGNVTISECDPNGKFIKLENSHRNKDENVGEHKIRRKLDGRREIVYSIPANVVIKPGKNLTIYARDQGGINNPPESLVFDGENTWGIGANVVTSLVNKDGEERATHTQKTIQSGQ
In the case of B4, the binding entry in experiment [3] is “binds”.

B5: PAT-12 (protein, UniProt Q95QA6 1-663)
chain: MTSHIATETSVNRWSTEPVVREEGRPPGPEDFPSTKQGREQDGNVIGITPNYKIGEQKPNSELNLGKTGSLPRGSGDYKMTYRQEDYKQTIIDPKVITNANMPYISTRIPDPRRNLAGDFPSEHSKSKIKLDPLEQRRFRSSESRPITTSNYLAESVDRHREMEASRLREYLKAKENEANQPWNKPGWPGPKKNDESLRELETMKQRIETLKRDANKGPVNAELDELSKRAEELRKRDGWSKYKLVESDIYKTDPDPMPANIKDQVRDLLESRNSVETTTTQRDHDKSGYVTDVSTATWNFSTVDYSPRSVVSMNGASHDILKDDKPRSIMKRNDLVRREQMLYPTVDTQVVKSVVKKPTVTETVQRFEETRRTEEVERRVQRREKKERRSRHHSSSRHHSGWEGHTGGYQGHRSSSLSRGGHGGGGQETYYRQETTRRQQHNNYDDNFNRGIAHARYGSLSDSLRRGELQYVPNGEVRQSFYRDGSNGGQRMHKSYSTRDVFTGDGYDDRRSVSSFRRGSQQQVSPFVEFPPTLPRRGGGGDYRREEDAYFRPVSKSRSYADWDDAGRAGMGREVRRYDDDMSRLEAEFRDSLLMPMPAGNMNERDHRTEQLPGGYETFNKERHANSGRRSGRDGKPVDFNEATQEYNYKREQTLNDDRRRR
Consider B5, for which the binding result in experiment [3] is on record as “binds”.

B6: PAT-2 (receptor, UniProt P34446 26-1226)
chain: FNIDTKNVVVHHMAGNYFGYSLDFYHEQKGMPVLVVGAPEAESNNPNLAGIRRPGAVYACSVNRATCREVHVDKMKGNLKKLNGSHLVPIEEKSHQFFGATVRSNDKHDKIVVCAPKYTYFYSKFEVIEPVGTCFYAENGFDNAEEFSSCKQEPARHGRHRLGYGQCGFSAAVPGKKNQNRVFIGAPGVWYWQGAMFSQNIKNQTDRPNTEYGSKEYDHDMMGYSTATGDFDGDGIDDIVAGVPRGNDLHGKLVLYTSKLKMMINLTDEVSTQHGQYCGGSVAVADVNKDGRDDIIMGCPFYTDYGSVKDAKTQERKPQYDVGKVIVMLQTAPGVFGKQIAVVGDDQWGRFGHAVAAAGDLNLDGYNDVIVGAPYAGKNKQGAVYVIHGSKDGVRELPTQKIEGANIGHGNIKSFGFSLTGNEDVDGNGMPDIAVGAWKSGNAAVLLTKPVVTVTGQTEPESALISVEDKNCDVDGKLGKQACKHINTCFKYEGKGDTPNDLEFDLRFNLDDHSPEPRAYFLQKDVKSDRSIKVAQGSKTRDHPSSIEQRVRLEKGRQKCFRHRFFASSTMKDKLSPIHWSVNYTYVESKTGKLRGDKLEPAIDTTVPLSFQNKINIANNCGKDDLCVPDLKVTAVADREKFLLGTQDNTMLINVTVQNGGEDSYETKLYFDVPQGFEYGGIESVGGDGSKSAPACSPTSDEPDSDGKWTFACDLGNPLPANKVVSSVVRVTASSDKPPLAPISINAHVNSSNDEEAHTVADNKVTFTIPVDFKNQLSLNGRSNPEQVDFSMTNKTRVDAFDDNEIGPVVSHLYQISNRGPSEVDSATLDIFWPSFSTEGGHLLYIITEPVVNPPNKGRCRVKQLQNVNPLNLRITNEHVPTEPPVAKTPNEYSREEDDESYEDETTTQSQSTRHQSTQHQTHHQSGPVHVYEKDEEKIRQNTGNWQYVEDKKKKGDYEYIPDDQEYDGDDFEEEDDEDFDRAGSKRVKRNPTPKKKKKGGEHRGEPRSDKARFSDLREAVKLSKEAGGVVDYKGPLSRASVDCNSLRCTHIECDIYDLKEDEFVLVEIFSRLYTNTLVDEKNPGGDISSLALARVTSTKYNLPHKPTLITAVSTNMNAIASEEGRDLPWWLYLLAILIGLAILILLILLLWRCGFFKRNRPPTEHAELRADRQPNAQYADSQSRYTSQDQYNQGRHGQML
For the molecule B6, the binding entry in experiment [3] is on record as “binds”.

B7: CAP-2 (protein, UniProt P34686 1-270)
chain: MGEQQLDCALDLMRRLPPQHCDKNLTDLIDLCPHLVDDLLSTIDQPLKIAADRETGKQYLLCDYNRDGDSYRSPWSNTYDPPLEDGQLPSEKRRKMEIEANAAFESYRDLYFEGGVSSVYFWDLDNGGFAGIVLIKKEGDGAKNITGCWDSIHVIEITERARQAHYKLTSTIMLWLQTNKSSSGVMNLGGSLTRQHEMDAPINDQNTHLANMGRMIEDQESKMRLTINEIYFGKTKKVMSDLRSTEKQSELEKQDEIVRELNNAMANRGN
Turning to B7, the binding result in experiment [3] and in experiment [2] was “binds” in each case.

B8: DLG-1 (protein, UniProt G5ECY0 1-967)
chain: MSHESSEKAHKAIENVEDYCQTLTRHGNEELRTNLERVITTFKSNLMHSLLDIHDLYEQTLLSERKSDAEKNMEVRRVIERLEGGPHSYNSRPAATTSTSNYNLSSTTPLISDLRDRGGFSYLNGGGLGNGLGNGLGNGLLSSPYNSSSTHYLHERQRQTSHDGTWRETTTRTVDTPSGLERRVVEHTGVIDDHGRKWELENIVLEKGHTGLGFSITGGMDQPTEDGDTSIYVTNIIEGGAALADGRMRKNDIITAVNNTNCENVKHEVAVNALKSSGNVVSLSLKRRKDEAFLPIGGNFGGSTSYLRSGVTPSVSAGNLQHAIHSPSAPIHPPPPPPVHHGSLSQLSVGQYRSTRPNTSVIDLVKGARGLGFSIAGGQGNEHVKGDTDIYVTKIIEEGAAELDGRLRVGDKILEVDHHSLINTTHENAVNVLKNTGNRVRLLIQQGTGAIFNDSASQQFMPTTPILRPSSVQDYNRSQMGSQSHLSYGGPLNTSYSSQAPIAIPLEPRPVQLVKGQNGLGFNIVGGEDNEPIYISFVLPGGVADLSGNVKTGDVLLEVNGVVLRNATHKEAAEALRNAGNPVYLTLQYRPQEYQIFESKIEKLRNDVIAQSRMGTLSRKSEYVRALFDYDPSRENSVAPHRSMGFNYGDILHIINSSDDEWWTARKVHENGEETAEGVIPSKKRVEKRERLRRKQVNFNSGSQSLGRNSSTTGLENRRGSRSQLSFSRKFPFVKSTDRLNDLNEESSNVAEEPVWSYQAVEQQAINYVRPVIILGALKDRINDELVNRDPSKFSSCVPHTSRPPREGEVNGRDYYFVNKHNMEEDVKNNLFIEAGQFQNNLYGTSIQSVRDVANQGRHCILDVSGNAIRRLQSNANIQPISIFIKPSSAQQILELDSQLATNRQDDRAMSGEEAQAQYSRCHRIEQTFGDLFTQEISNVHSANDVLSKVYSIISRESQTPIWVPRH
Consider B8, for which the binding entry in experiment [3] is “binds”.
